These results are taken from article PMC3254663.

No constants are given. Whether binding was seen depends on the method and setting. Binding seen in cells or lysates may run through a third protein. A result given as binding can be weak or reduced; the word gives no strength. Where a sequence is shown, tags or fusion partners need not be part of it.

For one assay, the target named is T1, GST-Smo625-753 (Drosophila) (UniProt P91682).
T1 sequence: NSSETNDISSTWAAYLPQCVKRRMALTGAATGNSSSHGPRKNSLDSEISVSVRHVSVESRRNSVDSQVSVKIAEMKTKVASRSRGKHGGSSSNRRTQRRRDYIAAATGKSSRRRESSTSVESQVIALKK
Kind of assay: pull-down; extracts from S2 cells expressing Flag-USP8, with or without Hh treatment, incubated with bacterially expressed GST-Smo fusion proteins; bound USP8 detected with anti-Flag; only the target purified.
As for “Flag-tagged ubiquitin-specific protease 8 (Flag-USP8) (Drosophila) (enzyme)”, the binding result is “binds”.

The target in another assay is T2, Myc-tagged Smoothened (Myc-Smo) (Drosophila) (UniProt P91682).
T2 sequence: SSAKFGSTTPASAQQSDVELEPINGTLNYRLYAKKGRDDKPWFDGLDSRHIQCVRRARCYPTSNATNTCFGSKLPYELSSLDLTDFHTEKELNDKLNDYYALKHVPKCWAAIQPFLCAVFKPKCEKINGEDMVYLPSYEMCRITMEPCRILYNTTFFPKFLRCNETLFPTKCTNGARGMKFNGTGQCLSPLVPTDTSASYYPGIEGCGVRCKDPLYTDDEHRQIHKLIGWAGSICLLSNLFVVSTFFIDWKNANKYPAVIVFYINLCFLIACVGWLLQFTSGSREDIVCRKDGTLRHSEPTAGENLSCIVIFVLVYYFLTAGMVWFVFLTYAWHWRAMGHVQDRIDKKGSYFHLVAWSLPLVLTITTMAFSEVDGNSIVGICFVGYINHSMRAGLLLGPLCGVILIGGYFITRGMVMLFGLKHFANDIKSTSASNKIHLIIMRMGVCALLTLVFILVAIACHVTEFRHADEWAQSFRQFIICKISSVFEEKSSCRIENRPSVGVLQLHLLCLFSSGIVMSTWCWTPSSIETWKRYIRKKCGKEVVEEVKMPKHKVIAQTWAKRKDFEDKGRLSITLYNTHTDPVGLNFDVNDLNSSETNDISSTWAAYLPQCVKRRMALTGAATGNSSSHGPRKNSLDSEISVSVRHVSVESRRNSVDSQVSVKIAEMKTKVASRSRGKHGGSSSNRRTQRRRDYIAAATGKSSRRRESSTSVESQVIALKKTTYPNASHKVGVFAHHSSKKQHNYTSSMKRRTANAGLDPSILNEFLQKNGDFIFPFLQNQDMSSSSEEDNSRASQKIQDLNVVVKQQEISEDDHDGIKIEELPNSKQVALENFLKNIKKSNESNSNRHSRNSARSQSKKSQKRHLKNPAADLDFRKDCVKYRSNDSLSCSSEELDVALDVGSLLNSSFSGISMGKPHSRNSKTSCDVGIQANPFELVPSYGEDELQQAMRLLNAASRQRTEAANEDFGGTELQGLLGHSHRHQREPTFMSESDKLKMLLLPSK
Kind of assay: co-IP; S2 cells co-transfected with Myc-Smo constructs and HA-USP8 constructs; immunoprecipitation with anti-Myc, Western blot with anti-HA. (In general: A western blot detects proteins with antibodies after separation by electrophoresis.)
As for “HA-USP8NT1 (aa 128-896) (Drosophila) (domain or fragment)”, the binding result is given as “binds”. The same measure, in the same setting: with “HA-USP8CT3 (aa 1-286) (Drosophila) (domain or fragment)” the entry was “no binding”; with “HA-tagged ubiquitin-specific protease 8 (HA-USP8) (Drosophila) (enzyme)”, “binds”.

For “HA-USP8CT1 (aa 1-534) (Drosophila) (domain or fragment)”, the binding result is recorded as “no binding”. For the substance “HA-USP8NT3 (aa 523-896), the catalytic domain of USP8 (Drosophila) (domain or fragment)”, the binding entry is “binds”. On to “HA-USP8NT2 (aa 287-896) (Drosophila) (domain or fragment)”, for which the binding entry is recorded as “binds”.
